Experimental data: publication PMC10290953, “A novel ELP1 mutation impairs the function of the Elongator complex and causes a severe neurodevelopmental phenotype” (Journal of Human Genetics, 2023)
Results are given in words; binding and its absence hold for the method and conditions named. Some binding calls cover weakened binding; strength is not graded here.

The chains behind the UniProt entries cited, without tags or fusion partners. Where a name states a change or a piece, a line headed by the entry shows the natural chain unless it says otherwise.
UniProt O95163: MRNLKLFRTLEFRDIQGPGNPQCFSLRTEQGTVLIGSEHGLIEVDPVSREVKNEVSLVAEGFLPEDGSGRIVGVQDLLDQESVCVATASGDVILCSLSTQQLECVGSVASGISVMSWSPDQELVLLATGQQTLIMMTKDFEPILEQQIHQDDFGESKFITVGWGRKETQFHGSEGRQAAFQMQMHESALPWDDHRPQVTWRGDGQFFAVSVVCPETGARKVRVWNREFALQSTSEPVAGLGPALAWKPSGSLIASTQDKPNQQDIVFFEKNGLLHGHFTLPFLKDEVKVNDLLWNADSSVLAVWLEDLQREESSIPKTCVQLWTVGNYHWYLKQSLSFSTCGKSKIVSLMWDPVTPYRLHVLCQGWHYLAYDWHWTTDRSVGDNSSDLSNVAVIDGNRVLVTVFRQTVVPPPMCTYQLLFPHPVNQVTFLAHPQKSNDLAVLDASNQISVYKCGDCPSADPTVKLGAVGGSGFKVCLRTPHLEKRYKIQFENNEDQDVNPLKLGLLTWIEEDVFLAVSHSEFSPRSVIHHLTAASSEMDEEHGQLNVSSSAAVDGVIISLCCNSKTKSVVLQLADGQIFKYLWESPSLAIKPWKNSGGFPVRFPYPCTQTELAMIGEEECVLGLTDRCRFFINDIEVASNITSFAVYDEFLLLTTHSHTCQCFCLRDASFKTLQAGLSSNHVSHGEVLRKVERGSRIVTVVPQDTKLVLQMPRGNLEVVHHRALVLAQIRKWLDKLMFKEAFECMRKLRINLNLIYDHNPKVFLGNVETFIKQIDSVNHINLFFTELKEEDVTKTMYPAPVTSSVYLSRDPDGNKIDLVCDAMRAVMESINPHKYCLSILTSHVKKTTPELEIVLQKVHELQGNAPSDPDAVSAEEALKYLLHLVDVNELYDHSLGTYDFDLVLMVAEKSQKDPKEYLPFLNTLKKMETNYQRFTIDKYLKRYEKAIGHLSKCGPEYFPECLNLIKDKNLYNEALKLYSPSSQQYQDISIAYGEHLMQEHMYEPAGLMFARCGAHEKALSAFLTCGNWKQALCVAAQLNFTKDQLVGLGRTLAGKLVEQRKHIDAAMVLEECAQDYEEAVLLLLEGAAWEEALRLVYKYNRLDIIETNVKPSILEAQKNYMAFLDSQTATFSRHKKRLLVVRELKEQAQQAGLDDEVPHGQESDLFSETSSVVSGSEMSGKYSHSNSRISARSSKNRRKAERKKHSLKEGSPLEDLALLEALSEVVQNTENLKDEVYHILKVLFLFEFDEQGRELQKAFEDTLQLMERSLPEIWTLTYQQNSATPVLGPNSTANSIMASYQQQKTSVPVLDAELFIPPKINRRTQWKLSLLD
UniProt Q6IA86: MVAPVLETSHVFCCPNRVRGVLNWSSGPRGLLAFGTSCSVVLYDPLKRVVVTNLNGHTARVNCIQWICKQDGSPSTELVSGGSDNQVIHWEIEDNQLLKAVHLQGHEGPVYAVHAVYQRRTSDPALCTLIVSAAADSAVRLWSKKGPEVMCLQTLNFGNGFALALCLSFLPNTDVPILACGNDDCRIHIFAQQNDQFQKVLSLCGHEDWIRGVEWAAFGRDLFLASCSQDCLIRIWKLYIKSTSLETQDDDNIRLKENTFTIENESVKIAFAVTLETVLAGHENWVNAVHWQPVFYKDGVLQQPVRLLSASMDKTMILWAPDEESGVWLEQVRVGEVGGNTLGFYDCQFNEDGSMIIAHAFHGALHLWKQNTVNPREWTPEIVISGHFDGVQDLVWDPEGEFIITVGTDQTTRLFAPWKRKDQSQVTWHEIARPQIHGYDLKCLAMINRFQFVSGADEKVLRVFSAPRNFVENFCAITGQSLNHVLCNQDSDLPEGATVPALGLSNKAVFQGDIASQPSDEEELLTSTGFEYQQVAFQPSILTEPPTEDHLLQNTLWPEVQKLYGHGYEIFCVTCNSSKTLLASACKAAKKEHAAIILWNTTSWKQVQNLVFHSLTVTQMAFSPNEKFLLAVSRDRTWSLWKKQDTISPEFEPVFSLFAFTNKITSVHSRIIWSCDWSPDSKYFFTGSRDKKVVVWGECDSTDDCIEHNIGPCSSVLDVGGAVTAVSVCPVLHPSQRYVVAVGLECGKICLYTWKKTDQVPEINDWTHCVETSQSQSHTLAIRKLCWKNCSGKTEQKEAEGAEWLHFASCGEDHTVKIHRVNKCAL
UniProt Q9H9T3: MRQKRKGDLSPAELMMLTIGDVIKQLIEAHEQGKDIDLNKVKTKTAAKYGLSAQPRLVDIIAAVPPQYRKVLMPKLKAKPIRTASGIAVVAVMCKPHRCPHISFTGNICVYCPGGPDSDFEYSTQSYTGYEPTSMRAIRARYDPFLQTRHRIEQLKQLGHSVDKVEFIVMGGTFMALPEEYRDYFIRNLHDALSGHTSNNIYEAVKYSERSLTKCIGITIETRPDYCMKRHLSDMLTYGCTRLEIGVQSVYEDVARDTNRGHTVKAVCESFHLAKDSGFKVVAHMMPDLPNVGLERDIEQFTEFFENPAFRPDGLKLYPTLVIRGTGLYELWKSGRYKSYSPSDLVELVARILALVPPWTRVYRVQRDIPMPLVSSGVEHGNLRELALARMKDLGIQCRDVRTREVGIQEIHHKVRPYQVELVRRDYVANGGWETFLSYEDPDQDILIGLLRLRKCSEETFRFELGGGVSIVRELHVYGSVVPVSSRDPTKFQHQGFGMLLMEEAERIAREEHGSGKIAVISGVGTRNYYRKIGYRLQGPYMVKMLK

What was measured:
[1] = target: T1, human ELP456 sub-complex (human) (UniProt Q96EB1+Q8TE02+Q0PNE2); experiment: pull-down; ELP456 immobilised via tagged ELP6 (methods: Anti-DYKDDDDK resin, FLAG; legend: IgG beads, Prot A), incubated with ELP123 30 min at 4 °C, washed in 20 mM HEPES pH 7.5, 100 mM NaCl, 1 mM DTT, 0.05% Tween 20; SDS-PAGE, Coomassie; both purified
T1 sequence 1: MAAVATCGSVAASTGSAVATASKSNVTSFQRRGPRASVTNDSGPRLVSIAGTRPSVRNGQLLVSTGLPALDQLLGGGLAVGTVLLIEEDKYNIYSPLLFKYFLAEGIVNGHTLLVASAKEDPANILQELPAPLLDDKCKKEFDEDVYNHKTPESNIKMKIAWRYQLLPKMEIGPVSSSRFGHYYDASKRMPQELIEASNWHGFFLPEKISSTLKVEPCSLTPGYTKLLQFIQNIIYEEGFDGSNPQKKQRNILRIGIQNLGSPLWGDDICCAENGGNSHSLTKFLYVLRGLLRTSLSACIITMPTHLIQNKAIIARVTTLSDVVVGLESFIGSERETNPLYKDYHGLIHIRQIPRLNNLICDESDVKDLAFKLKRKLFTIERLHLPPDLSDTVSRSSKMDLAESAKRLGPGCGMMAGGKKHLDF
T1 sequence 2: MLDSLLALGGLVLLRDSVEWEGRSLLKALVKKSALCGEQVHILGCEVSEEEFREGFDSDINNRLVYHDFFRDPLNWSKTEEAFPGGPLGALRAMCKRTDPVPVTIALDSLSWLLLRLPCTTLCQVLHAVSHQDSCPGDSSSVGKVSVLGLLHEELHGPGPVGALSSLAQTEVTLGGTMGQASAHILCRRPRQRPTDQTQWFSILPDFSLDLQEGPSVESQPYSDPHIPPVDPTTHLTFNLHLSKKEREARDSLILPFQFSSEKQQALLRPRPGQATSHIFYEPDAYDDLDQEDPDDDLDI
T1 sequence 3: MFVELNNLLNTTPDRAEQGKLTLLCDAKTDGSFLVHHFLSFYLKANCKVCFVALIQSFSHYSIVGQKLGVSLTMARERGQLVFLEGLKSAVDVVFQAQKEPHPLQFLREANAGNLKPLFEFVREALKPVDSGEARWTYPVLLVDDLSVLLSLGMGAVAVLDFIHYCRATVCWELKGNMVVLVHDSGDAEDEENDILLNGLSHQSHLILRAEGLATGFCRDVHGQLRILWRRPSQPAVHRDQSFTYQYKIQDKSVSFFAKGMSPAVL

[2] = target: human ELP1_(K815T)23 sub-complex (human) (UniProt O95163+Q6IA86+Q9H9T3); experiment: pull-down; ELP123 immobilised on Dynabeads MyOne Streptavidin C1 via Twin-Strep-tagged ELP3, incubated with ELP456 30 min at 4 °C, washed in 20 mM HEPES pH 7.5, 100 mM NaCl, 1 mM DTT, 0.05% Tween 20; SDS-PAGE, Coomassie; both purified
[3] = target: human ELP123 sub-complex (wild type) (human) (UniProt O95163+Q6IA86+Q9H9T3); experiment: as above

## human ELP1_(K815T)23 sub-complex (from UniProt O95163 1-1332; Q6IA86 1-826; Q9H9T3 1-547)
[1]
  binding: binds

## human ELP123 sub-complex (wild type) (from UniProt O95163 1-1332; Q6IA86 1-826; Q9H9T3 1-547)
[1]
  binding: binds

B1: human ELP456 sub-complex (complex, UniProt Q96EB1 1-424; Q8TE02 1-300; Q0PNE2 1-266)
chain 1: MAAVATCGSVAASTGSAVATASKSNVTSFQRRGPRASVTNDSGPRLVSIAGTRPSVRNGQLLVSTGLPALDQLLGGGLAVGTVLLIEEDKYNIYSPLLFKYFLAEGIVNGHTLLVASAKEDPANILQELPAPLLDDKCKKEFDEDVYNHKTPESNIKMKIAWRYQLLPKMEIGPVSSSRFGHYYDASKRMPQELIEASNWHGFFLPEKISSTLKVEPCSLTPGYTKLLQFIQNIIYEEGFDGSNPQKKQRNILRIGIQNLGSPLWGDDICCAENGGNSHSLTKFLYVLRGLLRTSLSACIITMPTHLIQNKAIIARVTTLSDVVVGLESFIGSERETNPLYKDYHGLIHIRQIPRLNNLICDESDVKDLAFKLKRKLFTIERLHLPPDLSDTVSRSSKMDLAESAKRLGPGCGMMAGGKKHLDF
chain 2: MLDSLLALGGLVLLRDSVEWEGRSLLKALVKKSALCGEQVHILGCEVSEEEFREGFDSDINNRLVYHDFFRDPLNWSKTEEAFPGGPLGALRAMCKRTDPVPVTIALDSLSWLLLRLPCTTLCQVLHAVSHQDSCPGDSSSVGKVSVLGLLHEELHGPGPVGALSSLAQTEVTLGGTMGQASAHILCRRPRQRPTDQTQWFSILPDFSLDLQEGPSVESQPYSDPHIPPVDPTTHLTFNLHLSKKEREARDSLILPFQFSSEKQQALLRPRPGQATSHIFYEPDAYDDLDQEDPDDDLDI
chain 3: MFVELNNLLNTTPDRAEQGKLTLLCDAKTDGSFLVHHFLSFYLKANCKVCFVALIQSFSHYSIVGQKLGVSLTMARERGQLVFLEGLKSAVDVVFQAQKEPHPLQFLREANAGNLKPLFEFVREALKPVDSGEARWTYPVLLVDDLSVLLSLGMGAVAVLDFIHYCRATVCWELKGNMVVLVHDSGDAEDEENDILLNGLSHQSHLILRAEGLATGFCRDVHGQLRILWRRPSQPAVHRDQSFTYQYKIQDKSVSFFAKGMSPAVL
[2]
  binding: binds
[3]
  binding: binds
